Experimental data: PubChem BioAssay AID652243 (Drosophila RNAi Screening Center, 2013)
In all, the deposit lists about 24,000 reagents; shown is an unselected part of those that have a named target and a result. Of all reagents, 246 (1%) are marked active. 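Plates not normalised; calls are printed but the firefly/Renilla ratio behind them is not deposited; fold cut for lowering reported inconsistently.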 Raw values are not corrected between plates. Entries without a mark were called inactive. The record does not give: the amount of reagent.

- Purpose: 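Knock-downs that decrease or increase androgen receptor reporter signal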 (primary screen)
- Cells: Drosophila S2R+ cells
- Reagent: long dsRNA against Drosophila genes
- Duration: 72 h (48 h, then 24 h hormone)
- Conditions: synthetic androgen R1881 at 10 nM for 24 h
- Measured: 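Firefly light from an androgen-responsive reporter and Renilla control light per well, raw and unnormalised, for each of two replicates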
- Scale: firefly reporter light: higher = more light from androgen-responsive reporter; Renilla control light: higher = more constitutive control signal (cell number, transfection)
- Rule for the call: 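Hit when the log firefly-to-Renilla ratio dropped or increased by a fixed fold versus the mean of GFP or LacZ controls across duplicate plates; lowering cut given as 1.5 and as 3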
- Meaning of the calls: active = hit: reporter lowered or raised; inactive = no hit

Which result is listed for asun [DRSC16733]?
firefly reporter light, replicate 1: 42497; firefly reporter light, replicate 2: 52517; Renilla control light, replicate 1: 2.67e5; Renilla control light, replicate 2: 3.81e5

What is on record for CG9928 [DRSC03274]?
firefly reporter light, replicate 1: 1.02e5; firefly reporter light, replicate 2: 1.54e5; Renilla control light, replicate 1: 1.08e6; Renilla control light, replicate 2: 1.19e6

For CG14883 [DRSC15007], what was measured?
firefly reporter light, replicate 1: 2.50e5; firefly reporter light, replicate 2: 2.61e5; Renilla control light, replicate 1: 2.74e6; Renilla control light, replicate 2: 2.69e6

For CG30340 [DRSC05167], how do the results read?
firefly reporter light, replicate 1: 2.85e5; firefly reporter light, replicate 2: 3.05e5; Renilla control light, replicate 1: 6.73e5; Renilla control light, replicate 2: 6.55e5

With RpS3 [DRSC16838], what does the deposit list?
firefly reporter light, replicate 1: 1.33e5; firefly reporter light, replicate 2: 1.55e5; Renilla control light, replicate 1: 1.47e6; Renilla control light, replicate 2: 1.42e6

Which result is listed for Had2 [DRSC05971]?
firefly reporter light, replicate 1: 7.48e5; firefly reporter light, replicate 2: 6.77e5; Renilla control light, replicate 1: 1.84e6; Renilla control light, replicate 2: 1.77e6

For Had2 [DRSC26955], how do the results read?
firefly reporter light, replicate 1: 3.65e5; firefly reporter light, replicate 2: 4.41e5; Renilla control light, replicate 1: 7.16e5; Renilla control light, replicate 2: 5.91e5

Which result is listed for RPA2 [DRSC03184]?
firefly reporter light, replicate 1: 1.43e6; firefly reporter light, replicate 2: 1.30e6; Renilla control light, replicate 1: 3.11e6; Renilla control light, replicate 2: 2.46e6

What is on record for RPA2 [DRSC29750]?
firefly reporter light, replicate 1: 5.29e5; firefly reporter light, replicate 2: 3.71e5; Renilla control light, replicate 1: 1.52e6; Renilla control light, replicate 2: 1.47e6

For Zmynd10 [DRSC09826], what does the deposit list?
firefly reporter light, replicate 1: 1.67e5; firefly reporter light, replicate 2: 1.34e5; Renilla control light, replicate 1: 1.65e6; Renilla control light, replicate 2: 1.52e6

For Zmynd10 [DRSC28996], what was measured?
firefly reporter light, replicate 1: 3.47e5 (active); firefly reporter light, replicate 2: 4.42e5; Renilla control light, replicate 1: 1.38e6; Renilla control light, replicate 2: 1.84e6

For Zmynd10 [DRSC39051], how do the results read?
firefly reporter light, replicate 1: 6.96e5; firefly reporter light, replicate 2: 5.65e5; Renilla control light, replicate 1: 2.31e6; Renilla control light, replicate 2: 2.25e6

Active calls, among the entries above:
Zmynd10 [DRSC28996] → firefly reporter light, replicate 1 = 3.47e5 (active); firefly reporter light, replicate 2 = 4.42e5; Renilla control light, replicate 1 = 1.38e6; Renilla control light, replicate 2 = 1.84e6
